In the supplement of paper PMC12819154, “High-throughput peptide-centric local stability assay extends protein–ligand identification to membrane proteins, tissues and bacteria” (Nature Structural & Molecular Biology, 2025) one finds log2 fold change data, which are given here for 37 targets.

By UniProt entry, the sequences of proteins in these tests, tags left out. Where a name states a change or a piece, a line headed by the entry shows the natural chain unless it says otherwise.
UniProt Q8K382: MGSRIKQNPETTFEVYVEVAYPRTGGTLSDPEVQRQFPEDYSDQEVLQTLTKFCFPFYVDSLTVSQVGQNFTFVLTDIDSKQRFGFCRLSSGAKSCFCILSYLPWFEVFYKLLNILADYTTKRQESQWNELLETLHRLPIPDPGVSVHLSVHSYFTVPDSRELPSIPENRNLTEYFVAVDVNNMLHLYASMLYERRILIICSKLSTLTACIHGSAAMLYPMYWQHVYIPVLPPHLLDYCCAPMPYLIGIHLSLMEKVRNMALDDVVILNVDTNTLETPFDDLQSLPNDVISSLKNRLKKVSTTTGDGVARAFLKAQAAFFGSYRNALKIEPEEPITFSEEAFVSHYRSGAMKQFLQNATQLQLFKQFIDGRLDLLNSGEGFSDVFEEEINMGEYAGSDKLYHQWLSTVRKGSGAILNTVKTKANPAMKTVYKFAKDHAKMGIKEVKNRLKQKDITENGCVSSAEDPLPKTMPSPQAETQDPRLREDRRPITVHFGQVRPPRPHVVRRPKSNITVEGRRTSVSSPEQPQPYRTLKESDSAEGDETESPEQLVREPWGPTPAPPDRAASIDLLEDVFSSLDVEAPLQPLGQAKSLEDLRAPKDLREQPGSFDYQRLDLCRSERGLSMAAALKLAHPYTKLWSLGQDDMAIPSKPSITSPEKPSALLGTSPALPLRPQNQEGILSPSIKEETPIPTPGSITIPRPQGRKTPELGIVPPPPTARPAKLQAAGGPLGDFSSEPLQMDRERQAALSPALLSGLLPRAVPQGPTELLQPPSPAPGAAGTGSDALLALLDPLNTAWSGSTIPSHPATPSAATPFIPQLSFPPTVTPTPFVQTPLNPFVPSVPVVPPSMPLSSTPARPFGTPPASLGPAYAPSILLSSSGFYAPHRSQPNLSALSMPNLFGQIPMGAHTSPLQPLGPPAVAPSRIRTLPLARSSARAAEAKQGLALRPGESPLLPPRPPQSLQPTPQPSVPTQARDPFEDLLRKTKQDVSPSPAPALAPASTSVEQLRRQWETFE
UniProt Q8K4F6: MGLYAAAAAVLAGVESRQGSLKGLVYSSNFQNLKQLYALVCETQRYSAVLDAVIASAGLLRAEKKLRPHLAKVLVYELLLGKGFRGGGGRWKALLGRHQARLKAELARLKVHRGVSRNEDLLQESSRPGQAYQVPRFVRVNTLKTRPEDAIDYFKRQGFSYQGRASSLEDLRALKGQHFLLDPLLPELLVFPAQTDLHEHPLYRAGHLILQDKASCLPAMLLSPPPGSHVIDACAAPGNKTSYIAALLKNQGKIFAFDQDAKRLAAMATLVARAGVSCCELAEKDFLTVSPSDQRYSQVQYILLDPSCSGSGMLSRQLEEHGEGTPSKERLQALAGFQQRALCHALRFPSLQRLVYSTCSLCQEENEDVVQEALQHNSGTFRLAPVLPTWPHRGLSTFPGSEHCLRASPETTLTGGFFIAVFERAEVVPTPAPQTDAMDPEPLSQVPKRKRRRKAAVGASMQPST
UniProt Q8K2F3: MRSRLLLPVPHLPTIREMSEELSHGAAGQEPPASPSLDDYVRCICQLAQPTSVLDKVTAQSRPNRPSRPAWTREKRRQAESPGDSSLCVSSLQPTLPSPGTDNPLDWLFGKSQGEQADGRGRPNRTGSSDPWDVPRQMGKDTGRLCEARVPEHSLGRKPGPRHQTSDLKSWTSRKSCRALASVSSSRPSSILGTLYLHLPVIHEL
UniProt Q8K2A7, whole entry: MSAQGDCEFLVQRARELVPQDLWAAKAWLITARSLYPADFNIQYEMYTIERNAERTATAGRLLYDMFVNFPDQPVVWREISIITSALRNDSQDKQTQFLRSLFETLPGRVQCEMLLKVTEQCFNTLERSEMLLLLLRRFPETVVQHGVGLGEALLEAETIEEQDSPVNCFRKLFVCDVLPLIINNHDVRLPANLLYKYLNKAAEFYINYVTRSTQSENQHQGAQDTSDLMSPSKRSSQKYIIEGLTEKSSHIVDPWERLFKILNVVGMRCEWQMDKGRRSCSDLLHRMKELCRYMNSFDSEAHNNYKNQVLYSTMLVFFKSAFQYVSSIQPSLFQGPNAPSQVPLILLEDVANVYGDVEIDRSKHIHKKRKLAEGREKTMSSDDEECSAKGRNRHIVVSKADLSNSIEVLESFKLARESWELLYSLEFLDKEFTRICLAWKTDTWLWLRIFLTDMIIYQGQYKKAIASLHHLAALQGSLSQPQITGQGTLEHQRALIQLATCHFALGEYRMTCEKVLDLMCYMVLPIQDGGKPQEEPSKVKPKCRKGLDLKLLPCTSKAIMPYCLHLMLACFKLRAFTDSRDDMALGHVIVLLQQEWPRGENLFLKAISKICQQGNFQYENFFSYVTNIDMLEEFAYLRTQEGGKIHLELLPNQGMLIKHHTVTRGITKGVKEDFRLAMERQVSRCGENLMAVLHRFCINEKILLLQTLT
UniProt Q8R0Z5: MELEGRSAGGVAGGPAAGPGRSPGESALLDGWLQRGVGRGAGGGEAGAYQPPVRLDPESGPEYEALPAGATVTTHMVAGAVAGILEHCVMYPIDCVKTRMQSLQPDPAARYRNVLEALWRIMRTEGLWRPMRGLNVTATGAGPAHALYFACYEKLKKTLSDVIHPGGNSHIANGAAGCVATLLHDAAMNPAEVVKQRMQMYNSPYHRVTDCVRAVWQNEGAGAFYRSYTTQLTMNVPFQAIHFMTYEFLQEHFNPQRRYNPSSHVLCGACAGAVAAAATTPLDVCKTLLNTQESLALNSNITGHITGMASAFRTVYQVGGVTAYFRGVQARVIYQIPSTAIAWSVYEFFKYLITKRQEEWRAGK
UniProt Q8R2M0: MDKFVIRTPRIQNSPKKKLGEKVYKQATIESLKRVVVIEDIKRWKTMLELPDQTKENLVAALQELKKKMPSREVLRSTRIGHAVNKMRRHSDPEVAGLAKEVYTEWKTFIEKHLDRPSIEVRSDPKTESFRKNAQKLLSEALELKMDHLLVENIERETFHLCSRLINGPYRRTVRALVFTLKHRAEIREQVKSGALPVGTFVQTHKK
UniProt Q8R0L9: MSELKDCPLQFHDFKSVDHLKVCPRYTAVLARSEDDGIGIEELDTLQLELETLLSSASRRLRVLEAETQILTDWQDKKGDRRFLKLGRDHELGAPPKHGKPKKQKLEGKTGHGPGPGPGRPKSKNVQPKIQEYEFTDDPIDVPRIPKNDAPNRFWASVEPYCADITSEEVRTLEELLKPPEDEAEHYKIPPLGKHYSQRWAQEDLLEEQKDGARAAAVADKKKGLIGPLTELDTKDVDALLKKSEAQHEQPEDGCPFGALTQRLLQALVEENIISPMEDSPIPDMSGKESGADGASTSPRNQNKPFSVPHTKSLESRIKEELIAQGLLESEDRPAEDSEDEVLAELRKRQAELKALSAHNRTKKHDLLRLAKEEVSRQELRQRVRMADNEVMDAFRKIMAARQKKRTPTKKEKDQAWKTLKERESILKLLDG
UniProt Q8R0G7: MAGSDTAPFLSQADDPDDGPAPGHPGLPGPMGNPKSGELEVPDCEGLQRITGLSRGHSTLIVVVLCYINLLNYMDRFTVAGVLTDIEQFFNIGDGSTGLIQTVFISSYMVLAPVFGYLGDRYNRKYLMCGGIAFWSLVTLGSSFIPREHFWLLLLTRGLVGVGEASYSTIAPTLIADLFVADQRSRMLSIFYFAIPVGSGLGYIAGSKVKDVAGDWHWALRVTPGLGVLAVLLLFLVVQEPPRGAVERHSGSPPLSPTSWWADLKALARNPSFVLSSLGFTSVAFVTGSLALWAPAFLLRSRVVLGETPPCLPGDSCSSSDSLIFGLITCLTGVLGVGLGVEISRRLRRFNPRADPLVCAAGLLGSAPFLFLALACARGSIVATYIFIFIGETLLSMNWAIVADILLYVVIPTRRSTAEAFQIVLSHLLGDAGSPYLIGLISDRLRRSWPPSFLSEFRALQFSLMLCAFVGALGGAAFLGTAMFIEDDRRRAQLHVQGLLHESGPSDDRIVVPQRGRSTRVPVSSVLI
UniProt Q8K3M5: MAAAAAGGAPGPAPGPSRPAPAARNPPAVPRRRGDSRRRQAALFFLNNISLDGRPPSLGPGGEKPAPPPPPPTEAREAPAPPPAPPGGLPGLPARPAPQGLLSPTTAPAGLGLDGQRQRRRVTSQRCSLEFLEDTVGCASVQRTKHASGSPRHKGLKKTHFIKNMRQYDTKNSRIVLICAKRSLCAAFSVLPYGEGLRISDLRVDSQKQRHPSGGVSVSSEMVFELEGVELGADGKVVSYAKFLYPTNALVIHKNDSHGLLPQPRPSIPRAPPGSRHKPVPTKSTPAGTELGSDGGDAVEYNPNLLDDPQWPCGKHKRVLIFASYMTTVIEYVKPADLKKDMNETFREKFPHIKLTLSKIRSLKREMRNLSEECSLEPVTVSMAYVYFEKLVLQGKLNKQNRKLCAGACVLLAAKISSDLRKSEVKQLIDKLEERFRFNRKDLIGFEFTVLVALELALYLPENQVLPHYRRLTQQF
UniProt Q8R1V4: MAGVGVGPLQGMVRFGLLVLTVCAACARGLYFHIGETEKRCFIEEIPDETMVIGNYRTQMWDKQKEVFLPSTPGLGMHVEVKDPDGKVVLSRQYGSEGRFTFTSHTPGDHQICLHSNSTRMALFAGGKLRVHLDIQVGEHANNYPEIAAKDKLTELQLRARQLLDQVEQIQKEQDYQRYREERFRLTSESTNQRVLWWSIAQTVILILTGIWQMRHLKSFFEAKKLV
UniProt Q8K2H2: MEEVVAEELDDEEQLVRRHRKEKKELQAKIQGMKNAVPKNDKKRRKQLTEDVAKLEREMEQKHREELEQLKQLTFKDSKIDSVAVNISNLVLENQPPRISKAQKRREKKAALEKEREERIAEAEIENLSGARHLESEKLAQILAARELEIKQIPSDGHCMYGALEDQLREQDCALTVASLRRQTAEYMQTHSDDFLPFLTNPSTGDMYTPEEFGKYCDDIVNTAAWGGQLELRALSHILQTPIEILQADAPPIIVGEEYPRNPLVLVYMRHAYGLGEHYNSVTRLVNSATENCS
UniProt Q8R1K1: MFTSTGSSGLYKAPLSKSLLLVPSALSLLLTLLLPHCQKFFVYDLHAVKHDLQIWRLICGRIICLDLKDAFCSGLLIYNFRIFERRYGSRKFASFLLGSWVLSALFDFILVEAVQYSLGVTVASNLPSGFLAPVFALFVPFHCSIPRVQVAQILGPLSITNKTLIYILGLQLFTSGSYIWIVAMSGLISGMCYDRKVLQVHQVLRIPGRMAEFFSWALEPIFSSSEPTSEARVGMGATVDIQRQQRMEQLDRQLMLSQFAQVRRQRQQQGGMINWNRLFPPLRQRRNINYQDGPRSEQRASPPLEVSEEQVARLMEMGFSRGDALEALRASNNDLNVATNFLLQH
UniProt Q8K126: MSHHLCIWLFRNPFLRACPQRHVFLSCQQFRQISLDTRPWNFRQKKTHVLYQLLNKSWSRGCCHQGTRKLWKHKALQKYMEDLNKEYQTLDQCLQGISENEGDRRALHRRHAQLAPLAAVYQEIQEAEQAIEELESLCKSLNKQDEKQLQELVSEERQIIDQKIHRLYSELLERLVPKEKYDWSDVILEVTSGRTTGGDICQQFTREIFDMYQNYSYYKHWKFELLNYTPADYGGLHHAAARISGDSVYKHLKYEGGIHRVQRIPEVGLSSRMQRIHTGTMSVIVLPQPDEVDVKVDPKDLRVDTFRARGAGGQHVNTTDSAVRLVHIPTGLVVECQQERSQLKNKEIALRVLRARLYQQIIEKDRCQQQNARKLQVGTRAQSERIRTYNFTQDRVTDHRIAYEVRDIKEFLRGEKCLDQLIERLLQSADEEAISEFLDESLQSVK
UniProt Q8K2W9: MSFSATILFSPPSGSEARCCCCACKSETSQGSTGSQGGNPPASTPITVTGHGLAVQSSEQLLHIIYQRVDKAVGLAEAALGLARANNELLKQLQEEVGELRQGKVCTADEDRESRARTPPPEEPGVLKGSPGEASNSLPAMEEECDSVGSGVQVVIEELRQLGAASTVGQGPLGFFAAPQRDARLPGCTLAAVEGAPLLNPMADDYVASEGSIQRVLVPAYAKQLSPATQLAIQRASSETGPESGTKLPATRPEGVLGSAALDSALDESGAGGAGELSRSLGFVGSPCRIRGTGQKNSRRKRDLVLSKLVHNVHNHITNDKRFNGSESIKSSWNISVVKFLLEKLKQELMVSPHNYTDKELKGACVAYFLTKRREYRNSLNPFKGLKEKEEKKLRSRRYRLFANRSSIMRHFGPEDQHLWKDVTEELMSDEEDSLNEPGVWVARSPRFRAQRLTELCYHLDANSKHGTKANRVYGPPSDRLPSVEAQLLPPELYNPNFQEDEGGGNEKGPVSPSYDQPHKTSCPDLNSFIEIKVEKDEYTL
UniProt Q8R0F8: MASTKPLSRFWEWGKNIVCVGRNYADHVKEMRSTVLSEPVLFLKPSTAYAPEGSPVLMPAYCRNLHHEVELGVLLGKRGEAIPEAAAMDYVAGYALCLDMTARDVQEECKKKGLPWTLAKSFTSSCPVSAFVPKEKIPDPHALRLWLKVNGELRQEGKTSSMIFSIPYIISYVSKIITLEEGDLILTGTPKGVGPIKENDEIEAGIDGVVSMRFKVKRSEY

The other results are listed elsewhere or left out. Most entries show no effect beyond the scatter of the controls.

Compound in this test: CN[C@@H]1C[C@H]2O[C@@](C)([C@@H]1OC)n1c3ccccc3c3c4c(c5c6ccccc6n2c5c31)C(=O)NC4 [staurosporine]
Nature of the test: log2 fold change of tryptic peptide abundance, ligand vs vehicle (limited proteolysis) (log2 ratio); higher = more trypsin-susceptible (destabilized). The conditions noted are these: ligand concentration: 20 uM; sample: mouse liver crude lysate; replicate design: treated separately.
With “UniProt Q8K382 (peptide sequence: KTPELGIVPPPPTARPAK, peptide start residue: 706)”, the log2 fold change was -0.0988.

Turning to “UniProt Q8K4F6 (peptide sequence: KLRPHLAK, peptide start residue: 65)”, the log2 fold change is 0.553.

Consider “UniProt Q8K2F3 (peptide sequence: LLLPVPHLPTIR, peptide start residue: 5)”, for which the log2 fold change came to 0.319.

Take “UniProt Q8K2W3 (peptide sequence: EHISHVENAMQK, peptide start residue: 795)”: the log2 fold change was -0.448.

For the target “UniProt Q8K2A7 (peptide sequence: ELVPQDLWAAK, peptide start residue: 16)”, the log2 fold change is -0.131.

With “UniProt Q8K358 (peptide sequence: DGTEAMLVLK, peptide start residue: 425)”, the log2 fold change was -0.0755.

Consider “UniProt Q8K1Y2 (peptide sequence: RIPSWSGRPIWMEK, peptide start residue: 249)”, for which the log2 fold change is 0.104.

As for “UniProt Q8K2C7 (peptide sequence: QHEEKTTEEVQDTDR, peptide start residue: 267)”, the log2 fold change came out at 0.471.

With “UniProt Q8R149 (peptide sequence: QTHNHSPTAAQHR, peptide start residue: 267)”, the log2 fold change was -0.82.

As to “UniProt Q8QZY1 (peptide sequence: IQLLVFK, peptide start residue: 488)”, the log2 fold change is -0.38.

Consider “UniProt Q8R2M2 (peptide sequence: LTAQNHQNLHIQEEK, peptide start residue: 269)”, for which the log2 fold change came to 0.872.

As to “UniProt Q8R0Z5 (peptide sequence: SAGGVAGGPAAGPGR, peptide start residue: 7)”, the log2 fold change turned out to be 0.16.

Turning to “UniProt Q8K2M0 (peptide sequence: ETDPKDKIDIGLPPPR, peptide start residue: 81)”, the log2 fold change is -0.305.

Turning to “UniProt Q8K411 (peptide sequence: KYLLNCDNMR, peptide start residue: 770)”, the log2 fold change was -1.09.

For the target “UniProt Q8R2M0 (peptide sequence: VVVIEDIKR, peptide start residue: 35)”, the log2 fold change stood at 0.446.

Regarding “UniProt Q8K4L3 (peptide sequence: ATGGLHTQEVEQSLK, peptide start residue: 1112)”, the log2 fold change was -0.159.

For the target “UniProt Q8R0L9 (peptide sequence: WAQEDLLEEQKDGAR, peptide start residue: 200)”, the log2 fold change was -0.173.

For the target “UniProt Q8R1B4 (peptide sequence: ELLGQGLLLR, peptide start residue: 642)”, the log2 fold change is 0.189.

As for “UniProt Q8R0G7 (peptide sequence: AQLHVQGLLHESGPSDDR, peptide start residue: 492)”, the log2 fold change was 0.234.

“UniProt Q8R216 (peptide sequence: EQKLPIAILNIGPTR, peptide start residue: 274)”: the log2 fold change turned out to be 0.129.

As to “UniProt Q8K3M5 (peptide sequence: FLYPTNALVIHK, peptide start residue: 243)”, the log2 fold change is 0.0761.

As to “UniProt Q8R1V4 (peptide sequence: DKLTELQLR, peptide start residue: 151)”, the log2 fold change is -0.114.

As for “UniProt Q8K2H2 (peptide sequence: HREELEQLK, peptide start residue: 63)”, the log2 fold change came to 0.0839.

As for “UniProt Q8K297 (peptide sequence: TPAYIPIR, peptide start residue: 209)”, the log2 fold change was -0.118.

On to “UniProt Q8R1K1 (peptide sequence: LMEMGFSR, peptide start residue: 314)”, for which the log2 fold change amounted to 0.127.

Regarding “UniProt Q8K1T1 (peptide sequence: AQMSPHDIPKPVTDFLPR, peptide start residue: 208)”, the log2 fold change was -0.277.

As to “UniProt Q8K126 (peptide sequence: SLNKQDEK, peptide start residue: 140)”, the log2 fold change is -0.358.

Turning to “UniProt Q8K4S1 (peptide sequence: NNTLGISTTK, peptide start residue: 1073)”, the log2 fold change turned out to be 0.324.

As for “UniProt Q8K2W9 (peptide sequence: LVHNVHNHITNDKR, peptide start residue: 309)”, the log2 fold change is -0.533.

In the case of “UniProt Q8K3K8 (peptide sequence: ENNDIEEGGSR, peptide start residue: 505)”, the log2 fold change is 0.464.

Consider “UniProt Q8R0K4 (peptide sequence: AVDRLEQELLKDTVK, peptide start residue: 181)”, for which the log2 fold change was -0.297.

For “UniProt Q8R1F6 (peptide sequence: TSLVATPGIDKLTEK, peptide start residue: 615)”, the log2 fold change came out at 0.164.

As for “UniProt Q8R1L8 (peptide sequence: ALEFLGTEVR, peptide start residue: 73)”, the log2 fold change was -0.173.

On to “UniProt Q8K387 (peptide sequence: VSKPVLLGK, peptide start residue: 390)”, for which the log2 fold change is 0.239.

For the target “UniProt Q8K1A0 (peptide sequence: YDLPALYNFHK, peptide start residue: 184)”, the log2 fold change is -0.399.

For the target “UniProt Q8R0F8 (peptide sequence: IPDPHALR, peptide start residue: 143)”, the log2 fold change stood at 0.248.

Turning to “UniProt Q8K330 (peptide sequence: QSHVWEQK, peptide start residue: 469)”, the log2 fold change is -0.142.
